Reference: patent US8022180B2, “Method for preventing and treating Alzheimer's disease” (Affiris Forschungs-und Entwicklungs GmbH, priority 2004, dated 2011)
Some of these results come from one statement about several compounds together. Where a SMILES comes first, the peptide text is derived from it.

target: monoclonal antibody specific for the natural N-terminal Aβ42 sequence DAEFRH; experiment: Inhibition assay: mimotope peptides compete with plate-bound DAEFRH-BSA for recognition by the biotinylated monoclonal antibody (ELISA); assay type: binding, mice; settings: competition ELISA, peptides 20 min at 37° C.
Excerpt: 1.: Generation of Monoclonal Antibodies (mAb) to Detect Aβ42-Derived Peptide Species with Free N-Terminus (Free Aspartic Acid at the N-Terminus)
Mice are vaccinated with the 6mer peptide DAEFRH (SEQ ID NO: 26) (natural N-terminal Aβ42 sequence) linked to the protein bovine serum albumin BSA (to make use of the hapten-carrier-effect), emulsified in CFA (first injection) and IFA (booster injections). DAEFRH (SEQ ID NO: 26)-peptide-specific, antibody-producing hybridomas are detected by ELISA (DAEFRH (SEQ ID NO: 26)-peptide-coated ELISA plates).
(§1) FIGS. 2 and 3 describe the results of inhibition assays performed with mimotope peptides included in and obtained from the 5 libraries (as described). The mimotope peptides compete with the original epitope for recognition by the monoclonal antibody. Original epitope and mimotope peptides contain an additional C at the C-terminus for coupling to a protein carrier (if desired).
After blocking with PBS/BSA 1% (200 μl/well, 12 h, 4° C.), the plates are washed 3× times with PBS/Tween. Then, biotinylated monoclonal antibody (1:2000, 50 μl/well) and peptides (50 μl/well) at 50, 5, 0.5, 0.05, 0.005, and 0.0005 μg/ml are added for 20 min. at 37° C. The plates are washed 3× times with PBS/Tween and are incubated with horseradish peroxidase (HRP)-labeled streptavidin (100 μl/well, 30 min, RT). The plates are washed 5× times with PBS/Tween and are incubated with ABTS+H2O2 (0.1% w/v, 10 to 45 min) and the reaction is stopped with citric acid followed by photometric evaluation (wavelength 405 nm).
as §1, with “4” for “2”, “5” for “3”, “C-terminus (position 7)” for “C-terminus”
After blocking with PBS/BSA 1% (200 μl/well, 12 h, 4° C.), the plates are washed 3× times with PBS/Tween. […]

IC50 (inhibition of monoclonal antibody binding to the original epitope), more than 0.5 μg/ml:
N=C(N)NCCC[C@H](NC(=O)[C@H](CC1CCCCC1)NC(=O)[C@H](CCC(=O)O)NC(=O)[C@H](CCCCN)NC(=O)[C@@H](N)CC(=O)O)C(=O)N[C@@H](CS)C(=O)O [Peptide 4064, DKEC(Cha)R]
CCCC[C@H](NC(=O)[C@H](CCC(=O)O)NC(=O)[C@H](CCCCN)NC(=O)[C@@H](N)CC(=O)O)C(=O)N[C@@H](CCCNC(=N)N)C(=O)N[C@@H](CS)C(=O)O [Peptide 4062, DKE(Nle)R] (HELM PEPTIDE1{D.K.E.[Nle].R.C}$$$$V2.0)
CCC[C@H](NC(=O)[C@H](CCC(=O)O)NC(=O)[C@H](CCCCN)NC(=O)[C@@H](N)CC(=O)O)C(=O)N[C@@H](CCCNC(=N)N)C(=O)N[C@@H](CS)C(=O)O [Peptide 4063, DKE(Nva)R] (HELM PEPTIDE1{D.K.E.[Nva].R.C}$$$$V2.0)
